IC50 data for 1 molecule are collected here from patent publication EP0551434B1 (BOARD OF REGENTS THE UNIVERSITY OF TEXAS SYSTEM, priority 1990, dated 1992).

Like-named read-outs stand apart in the source and are kept apart here.

For the assay, the system named is MCF7. As to the kind of experiment: Inhibition of MCF7 breast tumor cell growth in vitro (72 hour exposure, MTT tetrazolium dye assay). The format is cell-based. The conditions noted are these: Homo sapiens. On the procedure:
The MCF7 cell line is a human tumor cell line. This cell line was cultured in MEM( (Eagles) media in a 5% C0^2 atmosphere with 10% fetal calf serum that had been washed twice with dextran coated charcoal to reduce endogenous estrogen levels. The media was supplemented with 1 mM sodium pyruvate and 100 µm non-essential amino acids. The cell line was screened routinely for myoplasma contamination using the GenProbe kit (Fisher). Cells were trypsinized and plated at a density of 5,000 cells/well in 96 well microtiter plates and allowed to attach and recover for 24 hours.
The media was removed by aspiration and replaced with filter sterilized drug (concentration from 10-^4 M to […]) in media. The cells were incubated for 72 hours and then stained using the MTT tetrazolium dye assay of Mosmann^36 except that after the media was removed, the blue formazan product was solubilized in 50 µl/well DMSO.
(Formazan colour is commonly taken as a measure of viable cells.)

For `CC/C(=C(\c1ccccc1)c1ccc(OCCN(C)C)cc1)c1ccccc1` [Compound I, Tamoxifen, reference compound], the IC50 (in general, the midpoint of a concentration-inhibition curve) runs as follows: (MCF7, 72 h, read-out: IC50 Dose (µM)) 1 µM; (MCF7, read-out: IC50 Dose (μM)) 1 µM.
